Some of the results follow.

Protein sequences, listed by entry. Tags and fused reporters are not part of them.
UniProt Q0JBA9, entry or part of it: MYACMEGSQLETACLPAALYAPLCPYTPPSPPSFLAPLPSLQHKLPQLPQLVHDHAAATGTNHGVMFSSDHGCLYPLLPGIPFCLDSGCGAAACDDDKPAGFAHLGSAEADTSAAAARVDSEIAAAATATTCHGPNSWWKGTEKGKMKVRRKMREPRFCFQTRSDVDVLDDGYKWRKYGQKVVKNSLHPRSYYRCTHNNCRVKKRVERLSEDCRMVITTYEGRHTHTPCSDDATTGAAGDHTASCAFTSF

The target of the assay is OsWRKY34 (Oryza sativa, UniProt Q0JBA9 1-250). In words: protein-binding microarray (RPBM); PBS, 2% BSA, 51.3 ng/ul salmon testes DNA, 50 uM zinc acetate, 200 nM TF, 25 C, 1 h; high values mean tight binding. To be noted: protein: recombinant; tags: N-terminal polyhistidine and DsRed monomer fusion (pET32a); label: CyDye5-dUTP incorporated in the synthesized complementary strand; 3' TTTTT single-stranded linker to array surface; dsDNA, one strand shown. The gist of the method:
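Transcription factors were each fused at the N-terminus to a polyhistidine tag plus DsRed and expressed in E. coli BL21-CodonPlus before Ni–NTA purification. Binding to a double-stranded custom Agilent array was carried out with 200 nM protein at 25 °C for 1 h in PBS, 2% BSA, salmon testes DNA and 50 µM zinc acetate. The binding signal is per-feature fluorescence intensity, in arbitrary units, on an Axon 4000B scanner.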
“CCCCAAAATCACCGTCTACCCCGACACTTTTCACGCTCCTCGGAGTCACCTAGTGCAG”: the binding signal was 8650 fluorescence intensity (a.u.).

As for “TCCGTGCAGACTTTTCGCTGGGCCGTTTGTGTTTTTCTTTCGGAGTCACCTAGTGCAG”, the binding signal was 14700 fluorescence intensity (a.u.).

In the case of “GCCTACCCTAACACAGCCAGCCCGGGACCACCACGCCGCGCGGAGTCACCTAGTGCAG”, the binding signal is 10000 fluorescence intensity (a.u.).

Consider “TGACTTTCTCGGATTTAATGCATGACTCTTCATTCTTCCACGGAGTCACCTAGTGCAG”, for which the binding signal is 9410 fluorescence intensity (a.u.).

Turning to “CTATGTGTGTGTGTGTATAAATATGCGACGCGAGCTCGAGCGGAGTCACCTAGTGCAG”, the binding signal is 10600 fluorescence intensity (a.u.).

For the sequence “AGGGCACATCCCCAAGGCCATATCTCACTTGACAAAGCTCCGGAGTCACCTAGTGCAG”, the binding signal is 8070 fluorescence intensity (a.u.).

As for “CCATTTTTCTGCTCTCATTATATCATGTGGTTTGCTTCTGCGGAGTCACCTAGTGCAG”, the binding signal is 8030 fluorescence intensity (a.u.).

“CCTTCCGATCCACCACCCGCCAGTCTCCTCGCCAATTCTGCGGAGTCACCTAGTGCAG”: the binding signal was 8690 fluorescence intensity (a.u.).

Consider “GCCGGCCGCCGCAATGCCGCGAGCCCCACCTCCGCGGCCGCGGAGTCACCTAGTGCAG”, for which the binding signal was 8480 fluorescence intensity (a.u.).

For the sequence “TTGATTGTGACTTGCCATATTTTTTCAATAGCATATCCCACGGAGTCACCTAGTGCAG”, the binding signal is 8520 fluorescence intensity (a.u.).

“TGTAGAGGTCTCATAAACCACCATGACCTTGCTGCTTCACCGGAGTCACCTAGTGCAG”: the binding signal was 9620 fluorescence intensity (a.u.).

As to “TGGTGGTGGTGGTGGGCCTTCCCGTCGTCGTCTTCGACTTCGGAGTCACCTAGTGCAG”, the binding signal is 12400 fluorescence intensity (a.u.).

Take “AAGTTTATATACCCGTTTCAAATTTGAATTTGAATTATATCGGAGTCACCTAGTGCAG”: the binding signal was 8050 fluorescence intensity (a.u.).

Turning to “CCCAACTATTTCCACAAATTCTTTCGATAAGCCATTATATCGGAGTCACCTAGTGCAG”, the binding signal was 8580 fluorescence intensity (a.u.).

For the sequence “GTTCTATGTCCTTCCTGTTCTTTGTCTTTGGTCCTCTATGCGGAGTCACCTAGTGCAG”, the binding signal was 9420 fluorescence intensity (a.u.).

In the case of “TTCTTGTGCTGTTTTTGTTCTTTTTGTTTCATAATACCAGCGGAGTCACCTAGTGCAG”, the binding signal is 8400 fluorescence intensity (a.u.).

For “GCCGATTGAAGAGCAAATACAGTTGACTTTTAAAATCGAACGGAGTCACCTAGTGCAG”, the binding signal is 8290 fluorescence intensity (a.u.).

Regarding “ATCGTCGTTGTGTTGTTATTGGAGCTAAAGCTCAGCCGAACGGAGTCACCTAGTGCAG”, the binding signal is 9320 fluorescence intensity (a.u.).

“GAGGTTCATTGTGGCGCACAATTTTGTGGTAATCTATACACGGAGTCACCTAGTGCAG”: the binding signal was 9790 fluorescence intensity (a.u.).

As to “CAGTCTTTTTCTTTTATACACATGCTTAACAGCGTAATTACGGAGTCACCTAGTGCAG”, the binding signal was 8460 fluorescence intensity (a.u.).

In the case of “TTTCTTTGACTCGGTGACTTTGTGAGAGATGTTTTATGCCCGGAGTCACCTAGTGCAG”, the binding signal was 9190 fluorescence intensity (a.u.).

Take “ATTTGTTCCCATCCATCTCGGCCCTGTCGCCATTGTGCCACGGAGTCACCTAGTGCAG”: the binding signal is 9450 fluorescence intensity (a.u.).

“TTTCTTAGACCCGCTATTCTAATCTACTTTCTCTATTTCACGGAGTCACCTAGTGCAG”: the binding signal is 9140 fluorescence intensity (a.u.).

Take “TCTCTTGCCCTTGGCGTAGCTGCTTGCAAACGCCTTGAGACGGAGTCACCTAGTGCAG”: the binding signal was 8400 fluorescence intensity (a.u.).

Consider “ATCTTATCAGGCCTTTTTGTTGTTCTGCTGGTCTTGCTCGCGGAGTCACCTAGTGCAG”, for which the binding signal was 10600 fluorescence intensity (a.u.).

Turning to “TTCCTCTGGCCCGCCGGCAAAGGGCGCCACCGTCTCGACTCGGAGTCACCTAGTGCAG”, the binding signal was 8970 fluorescence intensity (a.u.).

Take “GATATAACCAACCAGTCTAACCACCACTACACACTCCACTCGGAGTCACCTAGTGCAG”: the binding signal is 8310 fluorescence intensity (a.u.).

On to “CAGCTCATCATCCCATCACACCCTTCTTCGAACGGCACAACGGAGTCACCTAGTGCAG”, for which the binding signal was 9910 fluorescence intensity (a.u.).

In the case of “CTATAGGTGGATTTTTAGGGACTCACCCGTAAAAACAGGTCGGAGTCACCTAGTGCAG”, the binding signal was 26800 fluorescence intensity (a.u.).

With “GGATTTGTGATGTATTTGATTTGTGTGTATATGTAACTTTCGGAGTCACCTAGTGCAG”, the binding signal is 8760 fluorescence intensity (a.u.).

With “GATATTGGTGTTGCGGTCATTTTGGACAATGCCTTTGTCGCGGAGTCACCTAGTGCAG”, the binding signal is 12800 fluorescence intensity (a.u.).

As for “GGGGTGGCGGCGGCGGCTGCGCGCGGGCGGTGGCGCGGGGCGGAGTCACCTAGTGCAG”, the binding signal was 12000 fluorescence intensity (a.u.).

In the case of “TAATGACTTATCCTGCGGTGAAAAATCTTCATCTTCGTATCGGAGTCACCTAGTGCAG”, the binding signal is 8160 fluorescence intensity (a.u.).

As for “TTTTTTTCTCCTCATTATTCTTCTTTTCTTTCTCTATATTCGGAGTCACCTAGTGCAG”, the binding signal was 9180 fluorescence intensity (a.u.).

Turning to “TACTCTTAATCCCTCTATCTGTTAGTAGATACTCCATCCACGGAGTCACCTAGTGCAG”, the binding signal was 8890 fluorescence intensity (a.u.).

For the sequence “CAAACGTTGCCGATCTCAATCTCGAGGGGTTTTCTTTCCTCGGAGTCACCTAGTGCAG”, the binding signal was 8930 fluorescence intensity (a.u.).

With “GCAAGAGTACTCTACTTCTGCAAGCTTATTCTTCGACTGACGGAGTCACCTAGTGCAG”, the binding signal was 9570 fluorescence intensity (a.u.).

On to “GGTTTTGAAAGACAGGGGTTCAACATTCTGACATTACAGTCGGAGTCACCTAGTGCAG”, for which the binding signal is 9170 fluorescence intensity (a.u.).

Consider “CCTCGTCGCGCTTGAGCTCCGCCCGCCACGGCCACGCGCCCGGAGTCACCTAGTGCAG”, for which the binding signal is 9230 fluorescence intensity (a.u.).

On to “CGTGCTCCTCCTACCCATCAGCCCATTGCCCCGCGTCGCTCGGAGTCACCTAGTGCAG”, for which the binding signal was 8120 fluorescence intensity (a.u.).

As to “AATGGTTGTGCTGGTATTACATCATTTTGGTGCTGAAATGCGGAGTCACCTAGTGCAG”, the binding signal was 8660 fluorescence intensity (a.u.).

For the sequence “CCCAGCCGCACCAGATCCCATCCCTTCTCTTCTTCTTCTCCGGAGTCACCTAGTGCAG”, the binding signal was 8170 fluorescence intensity (a.u.).

Consider “TACTCACTTTGTTTCATAATATATTGGATATGTTTTTCTTCGGAGTCACCTAGTGCAG”, for which the binding signal is 8850 fluorescence intensity (a.u.).

Take “CTGCTCGGAGCACACACAACCACCACTCACCACCAACATGCGGAGTCACCTAGTGCAG”: the binding signal is 9280 fluorescence intensity (a.u.).

As to “GTCGCGGCTGAACAGAACAGGGGAGGGGCGGCGATCTCCACGGAGTCACCTAGTGCAG”, the binding signal was 9420 fluorescence intensity (a.u.).

For the sequence “TTGAAGAGATAATTTCCCTTGTTTTGTATTTTCTTTTTCCCGGAGTCACCTAGTGCAG”, the binding signal was 9920 fluorescence intensity (a.u.).

Take “GTGTCCAAGTCCAACTCCGCCTCTTCCACGCTTCGGCTTCCGGAGTCACCTAGTGCAG”: the binding signal is 9220 fluorescence intensity (a.u.).

On to “GAGACACCGACGCGTCACACCACCACGTCCGTTTCCGTACCGGAGTCACCTAGTGCAG”, for which the binding signal was 8300 fluorescence intensity (a.u.).

“GGTTGGCTTCTTCTCGGTTTGTTCGTTCCTTGTGGTCGAGCGGAGTCACCTAGTGCAG”: the binding signal is 8240 fluorescence intensity (a.u.).

“ATCTAACCATGCGTCATTCACAGTTCTTCGTTCTTGTCTTCGGAGTCACCTAGTGCAG”: the binding signal was 8650 fluorescence intensity (a.u.).

Turning to “CAAGCATCTCCTCTTCTCCTCTTCTTCCATCTGCAAGCTCCGGAGTCACCTAGTGCAG”, the binding signal was 8350 fluorescence intensity (a.u.).

With “ATATCCAGTTCCTTTTCTTTTGGGGTGGTTCAAATGTCGACGGAGTCACCTAGTGCAG”, the binding signal was 11900 fluorescence intensity (a.u.).

As to “TTCATACTCTTACTATGTCCTGTTCTTGTCTTCAACAAAACGGAGTCACCTAGTGCAG”, the binding signal was 8090 fluorescence intensity (a.u.).

As for “AATTTTATGGAATTCACTCATTTTTTCTCATTGAGAATTTCGGAGTCACCTAGTGCAG”, the binding signal is 8540 fluorescence intensity (a.u.).

For the origin of these results see article PMC7819943, “Rice protein-binding microarrays: a tool to detect cis-acting elements near promoter regions in rice”.
